Results published in publication PMC11091121.
Construct, isoform or probe ends are uncertain for at least one entry. At least one verdict rests on a figure or table, not on a statement of the authors.

Sequences of proteins named here, by UniProt entry; tags and fusion partners are left off. Residues count along the entry.
UniProt Q8C6L5, 147-507 E211Q/D213N: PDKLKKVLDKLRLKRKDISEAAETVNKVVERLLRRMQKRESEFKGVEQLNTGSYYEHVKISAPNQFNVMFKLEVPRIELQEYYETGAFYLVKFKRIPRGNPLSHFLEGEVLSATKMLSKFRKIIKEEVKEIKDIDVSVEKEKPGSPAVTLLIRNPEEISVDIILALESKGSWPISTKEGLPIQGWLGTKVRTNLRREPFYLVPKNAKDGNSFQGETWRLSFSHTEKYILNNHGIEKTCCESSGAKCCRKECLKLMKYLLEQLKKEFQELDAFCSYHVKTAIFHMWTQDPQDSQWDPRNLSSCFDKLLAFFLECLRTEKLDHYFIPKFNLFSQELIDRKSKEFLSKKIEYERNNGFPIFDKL
UniProt Q8C6L5, 147-507: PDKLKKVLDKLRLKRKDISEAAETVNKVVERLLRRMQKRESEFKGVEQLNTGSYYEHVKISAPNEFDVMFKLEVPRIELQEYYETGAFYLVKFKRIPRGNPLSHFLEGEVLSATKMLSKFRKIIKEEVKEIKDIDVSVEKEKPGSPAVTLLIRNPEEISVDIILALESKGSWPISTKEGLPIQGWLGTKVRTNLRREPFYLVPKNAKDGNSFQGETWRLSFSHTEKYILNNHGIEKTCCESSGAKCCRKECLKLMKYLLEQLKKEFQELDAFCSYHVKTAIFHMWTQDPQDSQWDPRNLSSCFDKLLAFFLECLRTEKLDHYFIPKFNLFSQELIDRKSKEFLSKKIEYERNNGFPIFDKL
UniProt Q8C6L5, whole entry: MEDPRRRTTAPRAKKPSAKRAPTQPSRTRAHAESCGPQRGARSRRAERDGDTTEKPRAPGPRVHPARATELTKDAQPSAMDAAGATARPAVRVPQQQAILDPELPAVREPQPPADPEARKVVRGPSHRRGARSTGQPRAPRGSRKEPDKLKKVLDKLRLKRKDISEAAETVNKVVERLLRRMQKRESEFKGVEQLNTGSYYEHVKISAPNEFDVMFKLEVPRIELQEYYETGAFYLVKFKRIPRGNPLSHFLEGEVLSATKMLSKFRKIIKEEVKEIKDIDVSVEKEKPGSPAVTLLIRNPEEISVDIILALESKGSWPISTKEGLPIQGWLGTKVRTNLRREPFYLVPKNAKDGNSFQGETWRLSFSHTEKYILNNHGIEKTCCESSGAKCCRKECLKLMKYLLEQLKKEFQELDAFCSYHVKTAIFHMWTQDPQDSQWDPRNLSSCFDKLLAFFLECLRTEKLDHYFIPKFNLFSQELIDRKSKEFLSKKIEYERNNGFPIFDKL

Key:
[1] = target: QN-mcGAScat E211Q,D213N (mouse) (UniProt Q8C6L5); assay: crystal structure; settings: crystals: 0.2 M ammonium acetate, 32% MPD, 0.1 M Bis-Tris pH 6.5, 4 C, recombinant protein, residues 147-507
WT-mcGAScat (mouse) [2] = target: WT-mcGAScat (mouse) (UniProt Q8C6L5); assay: crystal structure; settings: pppGpG, 2 Mn2+; crystals: 0.2 M ammonium acetate, 32% MPD, 0.1 M Bis-Tris pH 6.5, 4 C; recombinant protein; residues 147-507
mcGASFL (mouse) = mcGASFL (mouse) (UniProt Q8C6L5); assay: fluorescence anisotropy; settings: length-dependent binding, FA: 5 nM FAM-dsDNA, as previously reported (reaction buffer likely 25 mM Tris-acetate pH 7.4, 125 mM KAc, 5 mM MgAc2, 1 mM TCEP, 5% glycerol, 25 C), recombinant protein, residues 1-507, label: FAM
WT-mcGAScat (mouse) [3] = target: WT-mcGAScat (mouse) (UniProt Q8C6L5); assay: fluorescence anisotropy; settings: FA: 5 nM FAM-dsDNA, as previously reported (reaction buffer likely 25 mM Tris-acetate pH 7.4, 125 mM KAc, 5 mM MgAc2, 1 mM TCEP, 5% glycerol, 25 C), recombinant protein, residues 147-507, label: FAM; for binding result: length-dependent binding, value not in material

Sequence: ATCTGTACATGTACAGAT (double strand) [18-bp palindromic dsDNA]
- binding result ([1]; GTP/GTP, Mg2+): binds
- binding result ([1]; ITP/GTP): binds
- binding result (WT-mcGAScat (mouse) [2]): binds

Sequence: TAAGACACGATGCGATAAAA (double strand) [20-bp FAM-dsDNA]
- binding result (mcGASFL (mouse); value not in material): binds
- binding result (WT-mcGAScat (mouse) [3]): binds

Sequence: TAAGACACGATGCGATAAAATCTGTTTGTAAAATTTATT (double strand) [39-bp FAM-dsDNA]
- binding result (mcGASFL (mouse); value not in material): binds
- binding result (WT-mcGAScat (mouse) [3]): binds

Sequence: TAAGACACGATGCGATAAAATCTGTTTGTAAAATTTATTAAGGGTACAAATTGCCCTAGCACAGGGGTGGGG (double strand) [72-bp FAM-dsDNA]
- binding result (mcGASFL (mouse); value not in material (or 286.42 nM if the excerpt row is the FL block)): binds
- Kd (WT-mcGAScat (mouse) [3]): 286 nM
